# Screening data

From PubChem BioAssay record AID912 (NCATS, 2007).

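Uptake of anthrax lethal toxin into cultured cells, read by FRET (460/530 nm ratio) and reported from the 460 nm channel; the cell line is not named here. Each compound was tested as a concentration series from about 0.0005 to 40 µM. The number is the fitted AC50 of the 460 nm signal alone; lower values mean a more potent effect. A falling signal goes with compounds filed as inhibitors or cytotoxic, a rising one with activators or fluorescent compounds (inferred from the filed classes).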

Values are in µM. Common to all entries: measured here: 460 nm channel. Part of the compounds only, not a random draw; the main read-out is not listed here. Potencies fitted to partial, single-point or poorly fitting curves are rough. The first word of each remark tells which way the curve ran; it can be opposite to the aim of the assay.

SMILES	AC50 (µM)	remark
CC(C)(C)C(=O)Cn1c(=N)n(Cc2ccccc2)c2ccccc21	31.62	falling, single point
O=C(CCCOc1ccccc1)N1CCN(c2ccccn2)CC1	6.31	falling, full curve, poor fit
CCNc1ncc2nc(-c3ccccc3)c(=O)n(Cc3ccc(F)cc3)c2n1	12.59	rising, partial curve
Cn1c(C(=O)NCCCN2CCN(c3cccc(Cl)c3)CC2)cc2c(=O)n(C)c3ccccc3c21	5.012	falling, partial curve
COc1ccccc1-n1c(SCC(N)=O)nnc1-c1ccc(S(=O)(=O)N2CCCCC2)cc1	25.12	rising, single point
COc1ccc2[nH]cc(CCNc3ncncc3-c3ccccc3C(F)(F)F)c2c1	25.12	falling, single point
Cc1ccccc1-n1nc(C)c2cc(C(=O)N3CCOCC3)sc21	0.01	falling, full curve, poor fit
Cc1ccc(S(=O)(=O)c2c(C)nn(C(C)(C)C)c2OC(=O)c2ccc(Br)o2)cc1	10	falling, partial curve
COC(=O)c1cc(=O)n(Cc2ccco2)c(=Nc2ccc(F)c(Cl)c2)s1	7.943	falling, partial curve
O=C1CC(c2ccccc2)CC(O)=C1C=NCCN1CCN(C(=O)Nc2ccccc2)CC1 (stereo not drawn)	25.12	rising, single point
CC(C)(C)c1ccc([C@@H](O)CCCN2CCC(C(O)(c3ccccc3)c3ccccc3)CC2)cc1	3.162	falling, partial curve, poor fit
O=c1c(-c2cc(F)cc(F)c2)nc2cnc(N3CCNCC3)nc2n1CCc1ccccc1	1.995	rising, full curve
Cc1nn(-c2nc3ccccc3s2)c(C)c1Oc1ccccc1O	10	falling, partial curve
CCOC(=O)Nc1ccc(C(=O)Oc2ccccc2)c(O)c1	19.95	falling, single point
CCOC(=O)C1CCN(C(=O)c2cc3c(-c4ccc(OC)c(OC)c4)nn(C)c3s2)CC1	15.85	rising, single point
CCC(=O)N1CCN(c2ccccc2NC(=O)Cc2ccc(Cl)cc2)CC1	19.95	rising, single point
CCCSc1oc(-c2ccco2)nc1S(=O)(=O)c1ccccc1	12.59	falling, partial curve
C/C(=C\C(=O)c1ccncc1)Nc1ccccc1O	2.512	falling, full curve
O=C(Nc1ccc2oc(-c3ccccc3)nc2c1)c1ccc2c(c1)OCCO2	10	falling, partial curve
CC(C)n1c(SCc2ccccc2F)nc2c1c(=O)n(C)c(=O)n2C	25.12	falling, single point
C[C@@H](COc1ccc(/C=C\c2ccccc2)cc1)[N+](C)(C)C	31.62	falling, single point
C[C@@H]1[C@H]2CC[C@@H]3[C@@H]4CC=C5C[C@@H](N(C)C)CC[C@]5(C)[C@@H]4CC[C@@]32CN1C	3.981	falling, partial curve
CCN(CC)C(=O)c1cc2sc3ccccc3c2s1	31.62	falling, partial curve
CC(=O)N1CCC(N(C(=O)Nc2ccc(C)c(C)c2)C2CCCC2)CC1	0.05012	falling, full curve
CCCCNc1nc(C)nc2c1nc(-c1ccccc1)n2CCCCN(CC)CC	5.012	rising, single point
COC(=O)c1cccc(C(=O)Nc2ccc(C)cc2)n1	10	falling, partial curve
O=C(NCCc1ccncc1)Nc1ccccc1Cl	31.62	rising, single point
CCN(CCNC(=O)C1CCN(Cc2nc(-c3cccc(Cl)c3)oc2C)CC1)c1ccccc1	31.62	falling, single point
CN1CCCC(OC(=O)CCCC(=O)OC2CCCN(C)C2)C1 (stereo not drawn)	1	falling, partial curve
O=C(c1ccco1)N1CCN(c2nc(C3CC3)nc3sc4c(c23)CCCC4)CC1	12.59	falling, single point
NCCCCCCNS(=O)(=O)c1cccc2ccccc12	5.012	falling, full curve, poor fit
CS(=O)(=O)c1ccc(-c2cc(Br)sc2-c2ccc(F)cc2)cc1	10	falling, full curve, poor fit
Clc1ccccc1CSc1nnc(-c2cccnc2)n1Cc1ccco1	3.981	rising, partial curve
COc1ccc(N2CC(C)Cn3c2nc2c3c(=O)n(Cc3ccccc3F)c(=O)n2C)c(OC)c1 (stereo not drawn)	0.7943	rising, full curve
c1ccc(Nc2ccc3ccccc3c2)cc1	25.12	falling, partial curve